According to article PMC7819943, “Rice protein-binding microarrays: a tool to detect cis-acting elements near promoter regions in rice”:
This is one part of the list.

Protein sequences, listed by entry. Tags and fused reporters are not part of them.
UniProt Q0JBA9, entry or part of it: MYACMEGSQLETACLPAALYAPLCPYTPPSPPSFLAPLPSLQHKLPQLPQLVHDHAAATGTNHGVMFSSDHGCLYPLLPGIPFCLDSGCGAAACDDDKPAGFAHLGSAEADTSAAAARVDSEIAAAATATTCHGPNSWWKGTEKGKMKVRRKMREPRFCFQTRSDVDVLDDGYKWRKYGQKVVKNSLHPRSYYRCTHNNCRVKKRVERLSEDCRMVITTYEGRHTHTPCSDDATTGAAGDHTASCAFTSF

Each sequence was assayed against OsWRKY34 (Oryza sativa, UniProt Q0JBA9 1-250) (assay: protein-binding microarray (RPBM); PBS, 2% BSA, 51.3 ng/ul salmon testes DNA, 50 uM zinc acetate, 200 nM TF, 25 C, 1 h; high values mean tight binding). Settings: protein: recombinant; tags: N-terminal polyhistidine and DsRed monomer fusion (pET32a); label: CyDye5-dUTP incorporated in the synthesized complementary strand; 3' TTTTT single-stranded linker to array surface; dsDNA, one strand shown.
In short: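 Polyhistidine-tagged DsRed fusions of transcription factors, joined at the N-terminus, were expressed in E. coli BL21-CodonPlus and isolated on Ni–NTA. They were incubated at 200 nM for 1 h at 25 °C on a custom Agilent array, double-stranded and BSA-blocked, in PBS with 2% BSA, salmon testes DNA and 50 µM zinc acetate. The binding signal is per-feature fluorescence intensity (arbitrary units) read on an Axon 4000B scanner after washing.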

Sequence	binding signal
ACATATATGATTCCAGTCACATTTAATTTTCCTTTTACAGCGGAGTCACCTAGTGCAG	8300 fluorescence intensity (a.u.)
AACGGTCATCGGTCATCGCACGTTGTCTCGTTTATGAACTCGGAGTCACCTAGTGCAG	9230 fluorescence intensity (a.u.)
TGTTTTTTTCCTCTTTCAAGGCGATTTGTCATGTTTCTGTCGGAGTCACCTAGTGCAG	14800 fluorescence intensity (a.u.)
ACTATTGTCATCTTACATGGACTCACCTTATTATCTACTTCGGAGTCACCTAGTGCAG	9150 fluorescence intensity (a.u.)
TTTGTCCAGTCCTTTCACACAATTCCTTCGTGTGATCTGCCGGAGTCACCTAGTGCAG	8790 fluorescence intensity (a.u.)
GCTAGCTCTCTCAAACCATCTCTCTCTTTCTTTCTGTGACCGGAGTCACCTAGTGCAG	8340 fluorescence intensity (a.u.)
CCGTCAGCGTTGTCTTCCCCATGCTTCCCTAGCATCGGTTCGGAGTCACCTAGTGCAG	9080 fluorescence intensity (a.u.)
CGGTCGTTGATCTTATTCATCATAATCACACCAGTACAATCGGAGTCACCTAGTGCAG	11100 fluorescence intensity (a.u.)
ACCAACTCTTCTCGCCCTAATCCATTTCTGAACTAAATTACGGAGTCACCTAGTGCAG	8530 fluorescence intensity (a.u.)
TAGCAGTGCCACCTTTTTCTGTCCGCTGTTGAGCTTGTGCCGGAGTCACCTAGTGCAG	9400 fluorescence intensity (a.u.)
GTGCTTTACTGCCTGGATTACTGCATCTACTTTTTTGTTACGGAGTCACCTAGTGCAG	10900 fluorescence intensity (a.u.)
CTCTGTCGCCGGCCTCTCCAGCGCCCCTGCGTTATCCCTCCGGAGTCACCTAGTGCAG	8420 fluorescence intensity (a.u.)
GCCCGCCATCTCCTCGCCTCGCCGTCGAAGGCCCGCAATGCGGAGTCACCTAGTGCAG	8870 fluorescence intensity (a.u.)
ATTATATATACTATGCTCAAATTTGTACTAATTGGTTTGACGGAGTCACCTAGTGCAG	8440 fluorescence intensity (a.u.)
CTCTCTCACACACACACTCTCACTCTTCTCTTATCCTCTCCGGAGTCACCTAGTGCAG	13300 fluorescence intensity (a.u.)
GTAACCGTCTCATCTTTGTCTTCCGTAAAAAAATGATCATCGGAGTCACCTAGTGCAG	9470 fluorescence intensity (a.u.)
CTCGTCTCCTCCGCCTCGCGACTTCGCCTCGCCGGCGCCGCGGAGTCACCTAGTGCAG	8280 fluorescence intensity (a.u.)
AACCTCTTGGAACATTTCCTCTAAGTCTATCTCTCTCATCCGGAGTCACCTAGTGCAG	9100 fluorescence intensity (a.u.)
CGTCTGCCCATCCGTTTTACGCTCGTCCGCGACCGCCGCCCGGAGTCACCTAGTGCAG	10700 fluorescence intensity (a.u.)
AGCCTATAGTCTCTTTATCCCTTTCTCGGTCAAATAGTGCCGGAGTCACCTAGTGCAG	8600 fluorescence intensity (a.u.)
TTCTGCTGATATTTGCTCTTCTTCTGTCATATCACCTTGCCGGAGTCACCTAGTGCAG	13700 fluorescence intensity (a.u.)

Sequence	binding signal
CCCGAGCACGCACACTCGCCGCCGCACTCCACTTCCCCAACGGAGTCACCTAGTGCAG	9590 fluorescence intensity (a.u.)
CGAGCTATCCTGCGCCGGCCTCTATATATCACCTCGAGCTCGGAGTCACCTAGTGCAG	9680 fluorescence intensity (a.u.)
GGTTTTACCGCAACCGCCTAGACACATCGCGTACTATCTCCGGAGTCACCTAGTGCAG	9110 fluorescence intensity (a.u.)
AAAAAAAAAAGTCAAACCTGGTTTCCTACCAACGTTTGACCGGAGTCACCTAGTGCAG	9420 fluorescence intensity (a.u.)
TCTCCCCTACTCATTGTCGGCTGACCTGGAGGTTGCGTTGCGGAGTCACCTAGTGCAG	8040 fluorescence intensity (a.u.)
CGTTGTCGCCGGCGATCTCTCTTCACCTGCTCCGGCCGCTCGGAGTCACCTAGTGCAG	11900 fluorescence intensity (a.u.)
ATATATGAATCCGATTCTGTCTTACCCTCACCTGGAAATACGGAGTCACCTAGTGCAG	8240 fluorescence intensity (a.u.)
TTATTAGGTTCTGCTATCTTATGATTCTATTTTGAATTCTCGGAGTCACCTAGTGCAG	8320 fluorescence intensity (a.u.)
GGCCGCCCAGCCCGTCGCGCGCTTCCGCCGCGCCGCCGCGCGGAGTCACCTAGTGCAG	9750 fluorescence intensity (a.u.)
ATTTTAAGGCAAATGTTTTCATAGCTGGGTCGTTGACGTACGGAGTCACCTAGTGCAG	8360 fluorescence intensity (a.u.)
CTCTAACCTAGTTTATCACTACTCATATTTTATTTTATTACGGAGTCACCTAGTGCAG	8940 fluorescence intensity (a.u.)
CCCGCCCGCCCCAGCACGCCGCCGCCCGCCGCCCATCGCCCGGAGTCACCTAGTGCAG	8500 fluorescence intensity (a.u.)
CTACATGCTGTAGGAATCGCCACCCACTTTTCATCTCTCTCGGAGTCACCTAGTGCAG	8660 fluorescence intensity (a.u.)
CAACCAATCAACTTAGGGCATTATTAGCAGTTTAATAGTACGGAGTCACCTAGTGCAG	8090 fluorescence intensity (a.u.)
TCACCAAACCTCACGTTTTAGTAGCCGATGTTTGTGTCTTCGGAGTCACCTAGTGCAG	8090 fluorescence intensity (a.u.)
ATCCATCTTCCACTGCATCAGCAGCTTCTTTTTCACCCTGCGGAGTCACCTAGTGCAG	8620 fluorescence intensity (a.u.)
TTGTTTGTTGACCCCATTTGCCTTGCCCCTATCTAATCTACGGAGTCACCTAGTGCAG	9390 fluorescence intensity (a.u.)
AATTCAACGAGTTACACCTTCCACCGTCAACCGAGGAGCTCGGAGTCACCTAGTGCAG	8620 fluorescence intensity (a.u.)
TTTACTTCTATCTGCCTTTTCAGCTGTGATGTTTAACAATCGGAGTCACCTAGTGCAG	8380 fluorescence intensity (a.u.)
CTTTTTTTTTTTTTGCTCGCTCTCTCGCACCGCATTTATTCGGAGTCACCTAGTGCAG	8640 fluorescence intensity (a.u.)
CGGTAGCTATATGGGGATTTTTTTTTTGTTGACTACTAGTCGGAGTCACCTAGTGCAG	8370 fluorescence intensity (a.u.)

Sequence	binding signal
CAATTTTCGCCGTCTTTGCAAGCAAACGCACGCAAGCGACCGGAGTCACCTAGTGCAG	8760 fluorescence intensity (a.u.)
GATCGATAGTTGCACGTTCTGACACATGTCATCTGTACCGCGGAGTCACCTAGTGCAG	8920 fluorescence intensity (a.u.)
GCTGATTTCAAACAATGTAGGTAAAGGTTGTAGGGTTCATCGGAGTCACCTAGTGCAG	9030 fluorescence intensity (a.u.)
GCTTCCCCGTCACTCCCACTATTTCCCACTCGTCGCCGGCCGGAGTCACCTAGTGCAG	8280 fluorescence intensity (a.u.)
CACCTGTCATACACACGTTACGTCTTGGAGTCCGTGCTATCGGAGTCACCTAGTGCAG	9360 fluorescence intensity (a.u.)
TCTTTTGCTTCTGTTCTGCACCGGTCTCTCTGATGGATGTCGGAGTCACCTAGTGCAG	9680 fluorescence intensity (a.u.)
TTGACATGCTAACTTGGCCATGTTCACCGCCGAAGCTCGCCGGAGTCACCTAGTGCAG	9010 fluorescence intensity (a.u.)
TTCCCCATAGCCCTTGTATTTCTCTAATGCATTCATATTGCGGAGTCACCTAGTGCAG	12600 fluorescence intensity (a.u.)
GACGGGCTGGAGTTAAAATTTTGTATTTACTCTTTTTTTTCGGAGTCACCTAGTGCAG	9300 fluorescence intensity (a.u.)
CCCCACATATCAGCCTGTCCAGTCTCCTCTCTCTTTCCCCCGGAGTCACCTAGTGCAG	8400 fluorescence intensity (a.u.)
ACCTCCGCGTCCGGCAGCCGCCTCGTCCTCAACCGCCTCCCGGAGTCACCTAGTGCAG	9240 fluorescence intensity (a.u.)
GTGTTTTTTCTTCATTTGTCCCGTAATAAATTTATTTTTTCGGAGTCACCTAGTGCAG	12500 fluorescence intensity (a.u.)
TTGTTTTTATTCAGGGTATAGTCTATTTATTTATTTTCTTCGGAGTCACCTAGTGCAG	8110 fluorescence intensity (a.u.)
CCTCCTTTTTTCTTGTTTGGCTCCATTTGTAAATACTCTTCGGAGTCACCTAGTGCAG	12100 fluorescence intensity (a.u.)
CGGTGCTGAGTCGTCATCAGTTGATGTTCTCACGAATTCGCGGAGTCACCTAGTGCAG	8250 fluorescence intensity (a.u.)
TAGTGGACGGCGGGATTTTGGCGATTTCAGTGTCTACAAGCGGAGTCACCTAGTGCAG	9380 fluorescence intensity (a.u.)
AAATATTTGACGCCGTTGACTTTTTTAAATATGTTTAACCCGGAGTCACCTAGTGCAG	27200 fluorescence intensity (a.u.)
ATTAACTAATTAATTCGTACTTTTGCTTTTTATTATTTTTCGGAGTCACCTAGTGCAG	10000 fluorescence intensity (a.u.)
TCTCGGTGAACAGGGGCCGCGGCTGGCGGGCGGCGGGCGGCGGAGTCACCTAGTGCAG	9470 fluorescence intensity (a.u.)
GCCTCATCTTCTGGCGCTTCTATGGGTATATTACTCTAATCGGAGTCACCTAGTGCAG	9580 fluorescence intensity (a.u.)
CTCGCCGCCCGCCTATTTCACGCCGCCGCGCCGCGCAGACCGGAGTCACCTAGTGCAG	9860 fluorescence intensity (a.u.)

Sequence	binding signal
GAGTTCAGGATCAATCAGTTTGACCAACCAAACAACTTCACGGAGTCACCTAGTGCAG	8120 fluorescence intensity (a.u.)
GACGCTCCGGATCAATCCACGTTGGCATGGCTTCCCCGCACGGAGTCACCTAGTGCAG	9190 fluorescence intensity (a.u.)
TCGAGGTTTCTCACCTCCACCGGTTCCATCTCATCTCATGCGGAGTCACCTAGTGCAG	9960 fluorescence intensity (a.u.)
ACCACCACCCGCAGATCTCCGCCTCGGCGCCATTGCCCACCGGAGTCACCTAGTGCAG	10500 fluorescence intensity (a.u.)
CACCGGTTCTTCGCCTTCGTCACCGTCGCCGGCGGCGCCACGGAGTCACCTAGTGCAG	8450 fluorescence intensity (a.u.)
CCTTATTTTTCAGCGTGTCAACCTTGACTGGTATTTTTTTCGGAGTCACCTAGTGCAG	8050 fluorescence intensity (a.u.)
ATTATACTTCGACGGTTTTTTTTATAGATACTCCATTTCCCGGAGTCACCTAGTGCAG	8410 fluorescence intensity (a.u.)
TAGAATCCACACTCGTAACATTCTGTTTTTTTATTTTTCCCGGAGTCACCTAGTGCAG	8570 fluorescence intensity (a.u.)
CAAAGCGAAGGCTCCATTCATTCACTCCATCTCCTCGCGTCGGAGTCACCTAGTGCAG	8900 fluorescence intensity (a.u.)
GGCCTCTCGTGCACCACCGGGTTCGCGTTGATCATCCCCACGGAGTCACCTAGTGCAG	8120 fluorescence intensity (a.u.)
GCAACACCACCCTCATCGGACCTGTGCCAACCGAGCTCGACGGAGTCACCTAGTGCAG	8100 fluorescence intensity (a.u.)
TAAACTCGTCTTATCCGCATGATTGTTGACTATAGTATGTCGGAGTCACCTAGTGCAG	9300 fluorescence intensity (a.u.)
ATTGTCTCCCTCGACTTGCCCTGTTGTCCACGTTGACTCGCGGAGTCACCTAGTGCAG	9160 fluorescence intensity (a.u.)
GGTAGTTGGGGTTGTCGGCGACGTGGTAGCTGCCGACGGTCGGAGTCACCTAGTGCAG	9580 fluorescence intensity (a.u.)
AACACTTGAACGATCAGCCTCCACATCTTCTTACCCTATTCGGAGTCACCTAGTGCAG	8200 fluorescence intensity (a.u.)
AGATTGACAGACACATTTGGAAGTGTTTCCCTGGCCTCACCGGAGTCACCTAGTGCAG	8420 fluorescence intensity (a.u.)
TTTTCTGTCATATCGTTCCAATTTGAATCAAACTTCCAATCGGAGTCACCTAGTGCAG	9830 fluorescence intensity (a.u.)
CGCCAGATATTTCCCGCGCGCCGCGTCGCGCCGCGCAACTCGGAGTCACCTAGTGCAG	8310 fluorescence intensity (a.u.)
ATACGTGCCAATCCAAACATTTCTTATTGAGTCGCCCATTCGGAGTCACCTAGTGCAG	8620 fluorescence intensity (a.u.)
CACTTTAAAACCCATGTGTATCTCGCGCCAAACTCGCTAGCGGAGTCACCTAGTGCAG	8200 fluorescence intensity (a.u.)
GGTCCGCGGCTGCTACTACTACCGCCTTTTGTTTTTCTCTCGGAGTCACCTAGTGCAG	9350 fluorescence intensity (a.u.)

Quoted from the listing.
In binding signal, GGTAGTTGGGGTTGTCGGCGACGTGGTAGCTGCCGACGGTCGGAGTCACCTAGTGCAG is listed with 9580 fluorescence intensity (a.u.)
In binding signal, CGTTGTCGCCGGCGATCTCTCTTCACCTGCTCCGGCCGCTCGGAGTCACCTAGTGCAG is listed with 11900 fluorescence intensity (a.u.)
In binding signal, GCTGATTTCAAACAATGTAGGTAAAGGTTGTAGGGTTCATCGGAGTCACCTAGTGCAG is listed with 9030 fluorescence intensity (a.u.)
In binding signal, TTCTGCTGATATTTGCTCTTCTTCTGTCATATCACCTTGCCGGAGTCACCTAGTGCAG is listed with 13700 fluorescence intensity (a.u.)
